Reference: PubChem BioAssay AID588497 (NMMLSC, 2011)
Among all 360,000 compounds or so, about 780 (0.22%) were called active. Inconclusive results, whose numbers are uncertain, are shown with a selection of clear calls. No stated cut-off is given here; in the data, active means inhibition above about 35% (passing the limit was not always enough); inconclusive means no clear call, values can overlap the other calls.

These compounds were tested on Botulinum neurotoxin type F light chain protease (Clostridium botulinum) (assay: BoNT/F light chain protease inhibitors, primary screen, biochemical, flow cytometry, MLPCN library (AID 588497; further: plate controls were buffer without enzyme for full effect and enzyme alone for no effect)). Conditions: Multiplex microsphere protease cleavage assay, at 10 µM, stronger effect = higher value.

SMILES | inhibition
O=C1C(Cc2ccc(Br)cc2)SC(=Nc2ccccc2)N1c1ccccc1 (stereo unspecified) | active: 35.6%
CC(C)Oc1ccc(OCCNC2CCCC2)cc1 | inactive: 1.3%
CCCCCCCc1n[nH]c(=S)n1Cc1ccccc1 | inconclusive: -47.4%
CC1Cc2cc(-c3csc(N)n3)ccc2O1 (stereo unspecified) | inconclusive: -26.6%
CCCCC(CC)C1OCC(CN2CCCCC2)O1 (stereo unspecified) | inconclusive: 28%
O=C(CCN1CCN(c2ccccc2)CC1)N/N=C/c1ccc([N+](=O)[O-])o1 | inactive: -9.9%
Cn1cc(-c2ccccc2C(=O)O)c(=O)c2cc(Cl)ccc21 | inconclusive: 9.5%
COc1cc(/C=N/N2CCN(Cc3ccc(C)cc3)CC2)cc(OC)c1O | inconclusive: 12.6%
O=S(=O)(Nc1ccccn1)c1ccc(Cl)c2ccccc12 | inactive: 5.1%
O=C(NCCCCCCNC(=O)c1ccncc1)c1ccncc1 | inconclusive: 8.5%
COc1ccc(NC(=O)CS(=O)CC(=O)Nc2cc(Cl)ccc2OC)cc1 (stereo unspecified) | inconclusive: -22.9%
CC(C)c1ccc(NC(=O)C2C3C=CC(CC3)C2C(=O)O)cc1 (stereo unspecified) | inconclusive: 23.7%
O=c1oc2ccccc2c(O)c1Sc1ccc(Cl)cc1 | inconclusive: -44.4%
COc1cccc(OC)c1C(=O)Nc1cccc(-n2cnnn2)c1 | inactive: -7.2%
N#Cc1nc(COc2cccc(Cl)c2)oc1NCc1ccco1 | inactive: -3.1%
CN(C)NC(=S)NC1CCS(=O)(=O)C1 (stereo unspecified) | inconclusive: 93.9%
C/C(=N\O)C(=O)NCC1CCNCC1 | inconclusive: -18.1%
Cc1cccc(-c2ncc(S(=O)(=O)C(C)(C)C)c(N)n2)c1 | inconclusive: 154%
Cc1ccc(CSCC(=O)N(C)CC(=O)Nc2ccccc2C(F)(F)F)cc1 | inconclusive: 3.4%
COc1ccc(CNS(=O)(=O)CCNC(=O)c2cccc(OC)c2)cc1 | inconclusive: -3.6%
Cc1noc(NS(=O)(=O)c2ccc(NS(=O)(=O)c3ccc(C(C)(C)C)cc3)cc2)c1C | inactive: 10.7%
Clc1cccc(OCc2nc(-c3ccncc3)no2)c1 | active: 44.2%
CN1C2=NCCN2C(=O)c2ccccc21 | inactive: -7.8%

SMILES | inhibition
O[C@@H]1C[C@H](c2ccccc2)N(CC2CCCCC2)C[C@H]1n1cc(C2CC2)nn1 | inactive: -0.7%
N#CC1(C#N)CC(C=O)=C(N)C1(C#N)CC(=O)c1ccc(F)cc1 (stereo unspecified) | inactive: -7.5%
CCCOC(c1ccccc1)(c1ccccc1)C(Oc1nc(C)cc(C)n1)C(=O)O (stereo unspecified) | inconclusive: 12.3%
O=S(=O)(c1ccc(-c2ccon2)s1)N1CCN(CCN2CCOCC2)CC1 | inconclusive: 50.9%
N#CCCn1nc(-c2ccccc2)cc1Nc1ccccc1NC(=O)c1cccs1 | inconclusive: -436%
Cc1ccc(Sc2ccc(CN3CCCCC3)cc2[N+](=O)[O-])cc1 | inactive: -1.4%
CCCCn1c(N)c(N(CC(C)C)C(=O)c2ccc([N+](=O)[O-])o2)c(=O)[nH]c1=O | inactive: 0.1%
O=C(NCCc1ccccc1)C(=O)NCCC1CCCCN1S(=O)(=O)c1ccccc1 (stereo unspecified) | inconclusive: -7.4%
COc1ccc(CCNCc2cccn2C)cc1OC | inconclusive: 2.8%
CCCS(=O)(=O)N1CCCC(c2nc(-c3ccc(OC)cc3)no2)C1 (stereo unspecified) | inactive: -5.3%
COc1ccc(N2CCN(C(c3cccc(OC)c3OC)c3nnnn3C3CCCC3)CC2)cc1 (stereo unspecified) | inconclusive: -34.1%
CSCCC(NC(=O)c1ccccc1)C(=O)NCCc1ccc2c(c1)OCCO2 (stereo unspecified) | inactive: -10.6%
Cc1[nH]c2ccc(Br)cc2c(=O)c1CN1CCCCC1 | active: 51.6%
O=C(O)c1ccc(Oc2cc(Oc3ccc(C(=O)O)cc3)cc([N+](=O)[O-])c2)cc1 | inconclusive: -36.7%
CC1CN(c2ccc(Oc3ccccc3)cc2)c2nc3c(c(=O)[nH]c(=O)n3C)n2C1 (stereo unspecified) | inconclusive: -56.5%
CCOc1ccc(-c2c(C)sc3nc[nH]c(=O)c23)cc1 | inconclusive: 17.2%
Nc1ccc(-c2nc3cc(N)ccc3n2CCO)cc1 | inactive: -4.2%
O=C(O)COc1ccc2oc3c(c2c1)CCCC3 | inconclusive: 1.1%
CN1CCN(c2nc(-c3ccccc3)ncc2S(C)(=O)=O)CC1 | inconclusive: 7.8%
CCC(NC(=O)Cc1c(C)c2ccc(OC)c(C)c2oc1=O)C(=O)NC(Cc1ccc(Cl)cc1)C(=O)O (stereo unspecified) | inactive: 2.5%
C=CCN1C(=O)C(CC(=O)NCC)SC1=Nc1ccccc1CC (stereo unspecified) | inactive: -6.5%
O=C(CN1C(=O)C2CCCCC2C1=O)Nc1ccccc1N1CCCC1 (stereo unspecified) | inconclusive: -8.7%
Cc1onc(-c2ccccc2Cl)c1C(=O)NCCn1ccc2ccccc21 | inconclusive: 5.3%

SMILES | inhibition
CCOc1ccc(Nc2nc(N)nc(CCl)n2)cc1 | inconclusive: -6.8%
COC(=O)C(OC(=O)c1ccc(OC)cc1)C(=O)OC | inconclusive: -10.4%
CC(=O)c1ccc(S(=O)(=O)N2CCCc3ccccc32)cc1 | inconclusive: 3.1%
Cc1nc(NC(=O)C2CC3CCCC(C2)C3=O)sc1C (stereo unspecified) | inconclusive: 17.3%
CCOC(=O)C1=NNC(C(=O)c2ccccc2)C1c1ccc(Cl)cc1 (stereo unspecified) | inconclusive: 174%
CCCCNC(=O)C1(C)CCCCN1C(=O)c1cccs1 (stereo unspecified) | inactive: -2.4%
COCCN(C(=O)CNC(=O)c1ccco1)C(C(=O)NC1CCCCC1)c1cccc(OC)c1 (stereo unspecified) | inconclusive: -6.1%
COc1cccc(NC(=O)CSc2nnc(CNC(=O)c3ccco3)n2C)c1 | inconclusive: 7.6%
CC(OC(=O)Cc1ccccc1F)C(=O)Nc1ccc(Cl)cn1 (stereo unspecified) | inconclusive: 11.1%
Cc1ccc2nc(NC(=O)c3ccc(Cn4cc(Cl)cn4)o3)sc2c1 | inconclusive: -10.8%
Cc1cc(C(=O)N/N=C/c2ccc(OCc3ccccc3)cc2)c(C)o1 | inactive: -7.8%
Clc1ccc(OCCNCCc2ccccc2)cc1 | inconclusive: -33.5%
COc1ccc(C(=O)Nc2cc(C)cc(C)c2)cc1S(=O)(=O)N1CCOCC1 | inconclusive: -10.7%
CC(C)(C)NC(=O)C(c1ccccc1F)N(Cc1ccco1)C(=O)c1csnn1 (stereo unspecified) | inactive: 0.9%
Cc1ccc(N(CC(=O)Nc2cc(Cl)ccc2Oc2ccccc2)S(C)(=O)=O)cc1C | inconclusive: -9.8%
O=c1c2cc(Cl)ccc2nc(-c2ccc([N+](=O)[O-])cc2)n1O | inactive: -4.3%
Cc1cccc(-n2cnc3c(c2=O)c2nc4ccccc4nc2n3Cc2ccco2)c1 | inactive: 25.4%
O=C(Nc1cccc(Cl)c1)c1csc([C@@H]2C[C@H](O)[C@@H](CO)O2)n1 | inactive: -0.3%
CCOc1ccc(C(CC(=O)O)NS(=O)(=O)c2ccc(C)cc2)cc1OC (stereo unspecified) | inconclusive: -7.2%
CC1=Nn2c(nnc2-c2n[nH]c3c2CCC3)SC1 | inconclusive: -4.3%
CC1(C)Cc2nc3sc4c(NCCO)ncnc4c3cc2CS1 | inconclusive: -59.1%
COc1ccc(C(c2nnnn2C2CCCCC2)N2CCN(C/C=C/c3ccccc3)CC2)cc1 (stereo unspecified) | inactive: -0.6%
CCOc1ccc(NC(=O)c2cc(=O)[nH]c3ccccc23)cc1 | inconclusive: -23.1%

SMILES | inhibition
CC(C)COC(=O)N(C)C[C@H]1OCc2cnnn2CCCC(=O)N([C@H](C)CO)C[C@@H]1C | inactive: -2.4%
C=C(C)C1CC=C(C)/C(=N/NC(=O)COc2ccc(Cl)cc2)C1 (stereo unspecified) | inactive: -1%
COc1cc(/C=N/N2CCN(c3ccccc3)CC2)ccc1OC(C)=O | inconclusive: 13.7%
COc1ccc(-n2c(COc3cccc4ccccc34)nnc2SCC#N)cc1 | inconclusive: -51.7%
COc1cc(OC)cc(C(=O)NCC(C)NC(=O)c2cc(OC)cc(OC)c2)c1 (stereo unspecified) | inconclusive: -8.3%
COc1ccc(N2C(=O)c3ccc(C(=O)Nc4ccccc4OC)cc3C2=O)cc1 | inconclusive: -1.2%
COc1ccc(CCN2CC(C(=O)Nc3nccs3)CC2=O)cc1OC (stereo unspecified) | inactive: -7.7%
O=C(O)c1ccc(NCc2nc3cc4ccccc4cc3[nH]2)cc1 | inactive: -8.5%
CN1C(=O)CSC1=Nc1cccc(C(=O)O)c1 | inconclusive: 13.9%
C=CCN1C(=O)c2ccc(C(=O)NCC(=O)Nc3c(C)cc(C)cc3C)cc2C1=O | inconclusive: -13.9%
COc1ccc(OC)c(/C=N/NC(=O)c2cc3c(OC)cccc3[nH]2)c1 | inconclusive: 17.1%
COc1ccc(S(=O)(=O)N(C)c2ccc(C(=O)N3CCC(C(N)=O)CC3)cc2)cc1OC | inactive: -5.2%
CCCCC(=O)Nc1ccc2c(c1)nc(CCN1CCN(C)CC1)n2C | inconclusive: -4.3%
O=C(O)c1ccc(-c2nnc(-c3ccc([N+](=O)[O-])cc3)o2)cc1 | inconclusive: 12.1%
O=C(c1ccc(N2CCCC2)c([N+](=O)[O-])c1)N1CCN(S(=O)(=O)c2ccccc2)CC1 | inactive: 6%
COc1cccc(-c2csc(N3CCN(Cc4ccccc4)CC3)n2)c1 | inactive: -8.8%
COc1cc(C(N)=O)cc(Br)c1OCc1ccccc1 | inactive: 1%
CCN(CC)C(=N)/C(C#N)=N/Nc1ccccc1 | inactive: 0.9%
Cc1ccc[n+](C(C)C(=O)c2ccc(Cl)cc2)c1 (stereo unspecified) | inconclusive: -34.2%
CCC(=O)N(C)CCc1cc2c(c(OC)c1/C=N/NC(=O)[C@H]1C[C@@H]1c1ccccc1)OCO2 | inconclusive: -10.8%
CC(=O)Nc1ccc(C(=O)N2CCN(S(=O)(=O)c3ccc4c(c3)OCCCO4)CC2)cc1 | inconclusive: 5.3%
Cc1ccc2c(c1)N(CC(=O)N(Cc1ccc3c(c1)OCO3)CC1CCCO1)C(=O)C(C)O2 (stereo unspecified) | inactive: -3.4%

5 entries picked at random from those above:
SMILES | inhibition
O=C(O)c1ccc(NCc2nc3cc4ccccc4cc3[nH]2)cc1 | inactive: -8.5%
COc1ccc(-n2c(COc3cccc4ccccc34)nnc2SCC#N)cc1 | inconclusive: -51.7%
O=C(c1ccc(N2CCCC2)c([N+](=O)[O-])c1)N1CCN(S(=O)(=O)c2ccccc2)CC1 | inactive: 6%
COc1cc(/C=N/N2CCN(c3ccccc3)CC2)ccc1OC(C)=O | inconclusive: 13.7%
CN1C(=O)CSC1=Nc1cccc(C(=O)O)c1 | inconclusive: 13.9%

Gathered by group: those above with a tert-butyl group
SMILES | inhibition
Cc1cccc(-c2ncc(S(=O)(=O)C(C)(C)C)c(N)n2)c1 | inconclusive: 154%
Cc1noc(NS(=O)(=O)c2ccc(NS(=O)(=O)c3ccc(C(C)(C)C)cc3)cc2)c1C | inactive: 10.7%
CC(C)(C)NC(=O)C(c1ccccc1F)N(Cc1ccco1)C(=O)c1csnn1 (stereo unspecified) | inactive: 0.9%
